From PubChem BioAssay record AID1508623 (NCATS, 2021).

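Change in HTT-promoter-driven luminescence in engineered HEK293 reporter cells after a 24 h treatment, measured at one concentration.
Percent change in reporter signal versus vehicle (0%) down to no light (-100%); more negative values mean stronger inhibition of promoter activity.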

Values are in %.
Common to all entries: at 57.5 µM (top of the series).
Only part of the assay is listed here, not a random draw.

For COc1ccc(NCc2ccccc2-c2nnc(-c3ccccc3)o2)cc1Cl the result was activity change 20.58%.
For Cn1c(=O)n(C)c2cc(N3CCOCC3)c(NS(=O)(=O)c3ccc(Br)cc3)cc21 the result was activity change 9.162%.
For COCCNC(=O)c1cnc2sc(N3CCCCC3)nn2c1=O the result was activity change 0.9001%.
For CCOc1ccc(CNC(=O)c2cc3ccccn3n2)cc1 the result was activity change 26.99%.
For CC1CCN(c2nn3c(=O)c(C(=O)NC(C)C)cnc3s2)CC1 the result was activity change -3.434%.
For Cc1cc(C)c(S(=O)(=O)Nc2ccc(-c3ccc(N4CCCCCC4)nn3)cc2)cc1C the result was activity change 4.756%.
For CC1Cc2cc(S(=O)(=O)CCC(=O)Nc3ccc(F)c(Cl)c3)ccc2N1C(=O)C1CC1 (stereo unspecified) the result was activity change -51.01%.
For CCCS(=O)(=O)N1CCC(n2c(C(F)(F)F)nc3cccnc32)CC1 the result was activity change -28.65%.
For COc1ccccc1OCCn1c(-c2ccc(Br)cc2)nc2ccccc2c1=O the result was activity change -9.259%.
For CC(C)(C)c1ccc(-c2nc(SCCOc3ccc(Cl)cc3)n3[nH]c(=O)cc3n2)cc1 the result was activity change -5.074%.
For COc1cc(Cl)c(C)cc1NC(=O)c1cnn(-c2ccc(C)cc2)c1-n1cccc1 the result was activity change -10.18%.
For Cc1ccc(CNC(=O)CCc2c(C)c3ccc(O)c(C)c3oc2=O)cc1 the result was activity change -14.74%.
For Cc1cc(C)c(S(=O)(=O)Nc2ccc(-c3ccc(N4CCCCC4)nn3)cc2)cc1C the result was activity change -7.727%.
For Cn1c(=O)n(C)c2cc(N3CCCCC3)c(NC(=O)c3ccc(C(C)(C)C)cc3)cc21 the result was activity change -3.228%.
For Cc1ccc(NC(=O)Nc2sc3nc4n(c(=O)c3c2C)CCC(C)CC4)c(Cl)c1 (stereo unspecified) the result was activity change -15.28%.
For COc1ccc(CNC(=O)c2cc3c(=O)n(Cc4ccco4)ccc3nc2C)cc1 the result was activity change -39.71%.
For Cc1ccc(C)c(Nc2nnc(-c3ccc(C)c(S(=O)(=O)N4CCCCC4)c3)c3ccccc23)c1 the result was activity change -43.85%.
For Cc1oc2ccc(O)c(CN3CCN(C)CC3)c2c1C(=O)Nc1ccc(C(C)C)cc1 the result was activity change -7.473%.
For COc1ccc(Cl)cc1S(=O)(=O)Nc1cccc(-c2ccc(N3CCOCC3)nn2)c1 the result was activity change 18.54%.
For O=C(NCCc1nc2ccccc2n1Cc1ccc(F)cc1)c1ccco1 the result was activity change -29.74%.
For COc1ccccc1NC(=O)c1cc2c(=O)n(Cc3cccs3)ccc2nc1C the result was activity change -34.45%.
For COC(=O)c1cc2oc3ccccc3c2n1CC(=O)Nc1ccc(OC)c(OC)c1 the result was activity change -9.268%.
For COC(=O)Cc1c(C)c2cc3c(c(C)c2oc1=O)OCN(CCc1ccc(F)cc1)C3 the result was activity change -42.06%.
For Cc1ccc(NC(=O)/C=C\C(=O)N(c2ccc(C(C)C)cc2)C(C(=O)NCc2ccco2)c2ccc(Cl)cc2)cc1 (stereo unspecified) the result was activity change -74.45%.
For Cc1ccc(CNC(=O)CCc2c(C)c3cc4c(C)coc4cc3oc2=O)cc1 the result was activity change -6.176%.
For Cn1c(=O)n(C)c2cc(N3CCCCC3)c(NC(=O)c3ccc(Cl)cc3)cc21 the result was activity change -11.46%.
For COc1ccc(CCN2C(=O)CN(C3CCCCCC3)C(=O)C2c2ccc(Cl)cc2)cc1OC (stereo unspecified) the result was activity change -35.04%.
For Cc1nn(Cc2ccc(Cl)cc2)c(C)c1NC(=O)c1noc2c1CCc1ccccc1-2 the result was activity change -81.92%.
For Clc1ccc(CCNC(c2cccc(Cl)c2)c2nnc(-c3ccccc3)o2)cc1 (stereo unspecified) the result was activity change -26.75%.
For O=C1C(c2ccc(F)cc2)N(CCc2ccc(Cl)cc2)C(=O)CN1C1CCCCC1 (stereo unspecified) the result was activity change -38.65%.
For Cc1ccc2nc(N3CCN(c4cccc(C(F)(F)F)c4)CC3)c3nnnn3c2c1 the result was activity change -12.66%.

3 of the entries, repeated:

| SMILES | activity change (%) |
|---|---|
| `COc1ccccc1NC(=O)c1cc2c(=O)n(Cc3cccs3)ccc2nc1C` | -34.45 |
| `Cc1ccc(NC(=O)/C=C\C(=O)N(c2ccc(C(C)C)cc2)C(C(=O)NCc2ccco2)c2ccc(Cl)cc2)cc1` (stereo unspecified) | -74.45 |
| `CCOc1ccc(CNC(=O)c2cc3ccccn3n2)cc1` | 26.99 |